Laboratory results as given in article PMC6281677.
Results are given in words; binding and its absence hold for the method and conditions named. In cells and extracts the contact can be indirect. Some results given as binding are weak or reduced against the parent protein; the word gives no strength. Sequences can lack the tags named with a protein.

Biological target: …-… 2 (FLS2) receptor, GFP-tagged (Arabidopsis thaliana) (UniProt Q9FL28)
Assay: co-IP; anti-GFP beads (Chromotek) on total protein of N. benthamiana leaves transiently co-expressing the GFP-tagged FLS2 protein and the tagged partner; leaves treated with MgCl2 or flg22 (1 uM, 10 min in the legends; 5 uM, 15 min in the methods); extraction buffer 50 mM HEPES pH 7.5, 1 mM EDTA, 0.5% Triton X-100, 1 mM DTT; on ice 30 min; blots with anti-myc, anti-HA, anti-GFP; for FLS2 with BIK1 also with SUMO1-HA co-expressed, with or without Desi3a-HA, in the presence of flg22

- binding: binds
B1: SUMO E2 conjugating enzyme SCE1, HA-tagged (enzyme, UniProt Q42551 1-160)
chain: MASGIARGRLAEERKSWRKNHPHGFVAKPETGQDGTVNLMVWHCTIPGKAGTDWEGGFFPLTMHFSEDYPSKPPKCKFPQGFFHPNVYPSGTVCLSILNEDYGWRPAITVKQILVGIQDLLDTPNPADPAQTDGYHLFCQDPVEYKKRVKLQSKQYPALV
